Results as given in PubChem BioAssay AID602313 (National Center for Advancing Translational Sciences (NCATS), 2012).
The whole screen tested about 390,000 compounds, of which about 760 (0.19%) were called active. This list was built around the results that the source calls inconclusive (neither active nor inactive); the mix of calls is not that of the screen. Calls follow the shape of the dose curve; as a rule, active = well fitted inhibition curve with a large enough effect; inconclusive = small, poorly fitted or top-dose-only effect; inactive = flat fitted curve, though single readings scatter. Potencies of inconclusive entries are doubtful fits and often do not repeat.

Assay: qHTS for Inhibitors of Vif-A3F Interactions: qHTS; also: nearly all actives have a fitted effect of over 65% in size
Settings: HeLa A3F-eYFP + Vif (tagged APOBEC3F with the HIV-1 protein that degrades it), YFP fluorescence increase; series mostly up to 46.1 µM
How it was run: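 Fluorescence increase (Ex 488/Em 500-530) after overnight compound treatment at 37 deg C flags inhibition of Vif-driven A3F-eYFP loss in stable HeLa A3F-eYFP/Vif cells seeded overnight beforehand.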
Potency is read from the fitted curve at half-maximal effect.

Row | Compound | Potency
1 | O=C(CSc1nc2ccc(S(=O)(=O)N3CCOCC3)cc2[nH]1)N1CCOCC1 | inactive
2 | C#CC(=O)N(c1ccc(OC)c(OC)c1)C(C(=O)NC1CCCC1)c1cccs1 (stereo unspecified) | inactive
3 | Cc1ccc(/C=N/NC(=O)c2cccc3ccccc23)o1 | inconclusive: 35.5 µM [inhibitor, single point]
4 | CCOC(=O)/C=c1\s/c(=C\c2c(OC)ccc3ccccc23)c(=O)n1CC(=O)NCC1CCCO1 (stereo unspecified) | active: 25.1 µM
5 | O=C(CC(=O)N/N=C/c1ccccc1)NCc1ccccc1 | inconclusive: 3.55 µM [inhibitor, partial curve, poor fit]
6 | COc1ccc2nc(NC(=O)c3cc(=O)c4ccccc4o3)sc2c1 | inactive
7 | COc1cccc(Nc2nc3ccc(C(=O)c4ccccc4)cc3n3cnnc23)c1 | inactive
8 | Oc1ccc(/C=N/Nc2ccc(Cl)nn2)cc1O | inconclusive: 0.631 µM [inhibitor, full curve, poor fit]
9 | Cc1noc(-c2ccc(NCc3ccccc3)c([N+](=O)[O-])c2)n1 | inconclusive: 11.2 µM [inhibitor, single point]
10 | Cn1c(/C(C#N)=C/c2ccc(O)cc2)nc2ccccc21 | inactive
11 | O=S(=O)(c1ccccc1)N1CCN(S(=O)(=O)c2ccc(F)cc2)CC1 | inactive
12 | CNC(=O)c1nnsc1S(=O)(=O)c1ccc(Cl)cc1 | inactive
13 | Cc1ccc(/C=N/Nc2nc(C)cc(C)n2)cc1 | inactive
14 | Cc1nnc2c(Nc3cccc(O)c3)nc3ccccc3n12 | inconclusive: 35.5 µM [inhibitor, single point]
15 | Cc1ccc(NC(=O)CN2C(=O)N/C(=C/c3ccc(C)o3)C2=O)cc1 | inactive
16 | C=CCn1c(-c2sc(-c3ccccc3)nc2C)n[nH]c1=S | inconclusive: 35.5 µM [inhibitor, single point]
17 | COc1ccc(-n2cnc(=S)[nH]c2=S)cc1 | inconclusive: 35.5 µM [inhibitor, partial curve, poor fit]
18 | C=CCc1ccccc1OCC(O)CN1CCN(Cc2ccc3c(c2)OCO3)CC1 (stereo unspecified) | inconclusive: 12.6 µM [inhibitor, partial curve, poor fit]
19 | CCOc1ccc(NC(=O)c2cn(CC(C)C)c(=O)c3c2c2ccccc2n3C)cc1 | inconclusive: 35.5 µM [inhibitor, single point]
20 | CCOC(=O)c1cccc(NC(=O)CCc2nc3cccnc3n2-c2ccccc2)c1 | inconclusive: 35.5 µM [inhibitor, single point]
21 | O=C1C(SCCO)=C(SCCO)C(=O)c2ccccc21 | inconclusive: 3.55 µM [inhibitor, partial curve, poor fit]

Four entries out of the list, arranged by formula weight, ascending:
Row | Compound | Potency
10 | Cn1c(/C(C#N)=C/c2ccc(O)cc2)nc2ccccc21 | inactive
15 | Cc1ccc(NC(=O)CN2C(=O)N/C(=C/c3ccc(C)o3)C2=O)cc1 | inactive
18 | C=CCc1ccccc1OCC(O)CN1CCN(Cc2ccc3c(c2)OCO3)CC1 (stereo unspecified) | inconclusive: 12.6 µM [inhibitor, partial curve, poor fit]
4 | CCOC(=O)/C=c1\s/c(=C\c2c(OC)ccc3ccccc23)c(=O)n1CC(=O)NCC1CCCO1 (stereo unspecified) | active: 25.1 µM
